Assay results taken from patent US20110245326.
For at least one entry, the source does not settle the construct or the ends of the probe. A negative result means that nothing was seen under these conditions.

Tested on: Iron-responsive protein (IRP)
Test: activity in cells
Conditions: IRP does not inducibly repress 5-1.2 reporter in yeast (NS), protein details: expressed in S. cerevisiae, variant of 5-1.13, dose not given here

With “GGAUCCAGGCAGAGAAAGGUCGAUACGGACGGAAUGUGAUGGCCUGGAUCC [5-1.2]” the “functional effect of the aptamer” value was “not active”.
